Test results from PMC10332018.

The chains behind the UniProt entries cited, without tags or fusion partners. Where a name states a change or a piece, a line headed by the entry shows the natural chain unless it says otherwise. Residues count along the entry.
UniProt P23443, residues 24-525: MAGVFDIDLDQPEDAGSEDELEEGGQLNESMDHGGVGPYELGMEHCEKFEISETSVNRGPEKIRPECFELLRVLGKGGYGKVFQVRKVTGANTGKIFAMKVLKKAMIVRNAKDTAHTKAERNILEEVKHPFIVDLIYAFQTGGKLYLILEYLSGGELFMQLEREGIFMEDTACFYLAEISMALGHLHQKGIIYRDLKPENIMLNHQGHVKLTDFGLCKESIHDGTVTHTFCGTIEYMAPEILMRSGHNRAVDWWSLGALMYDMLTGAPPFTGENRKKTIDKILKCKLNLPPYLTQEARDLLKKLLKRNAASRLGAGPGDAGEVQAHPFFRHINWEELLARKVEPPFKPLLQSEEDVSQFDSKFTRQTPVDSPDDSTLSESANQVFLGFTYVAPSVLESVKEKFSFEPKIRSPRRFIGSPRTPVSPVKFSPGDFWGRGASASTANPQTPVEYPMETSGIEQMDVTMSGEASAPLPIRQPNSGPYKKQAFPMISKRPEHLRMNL
UniProt P67775: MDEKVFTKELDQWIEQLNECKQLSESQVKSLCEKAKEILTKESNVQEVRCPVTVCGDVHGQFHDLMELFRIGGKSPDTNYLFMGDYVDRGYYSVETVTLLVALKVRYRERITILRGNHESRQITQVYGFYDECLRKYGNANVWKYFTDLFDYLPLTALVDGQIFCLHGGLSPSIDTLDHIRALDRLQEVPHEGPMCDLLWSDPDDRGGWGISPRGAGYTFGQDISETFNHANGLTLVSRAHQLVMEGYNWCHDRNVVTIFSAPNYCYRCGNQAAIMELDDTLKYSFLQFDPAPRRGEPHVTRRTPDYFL

Tests used:
Flag-p70S6K [1] = target: Flag-p70S6K (UniProt P23443); test: co-IP; lysates of HEK293 cells co-transfected with 4HA-B56γ3 and Flag-p70S6K, immunoprecipitated by anti-FLAG-Sepharose; Western blot; isotonic IP buffer
Flag-p70S6K [2] = target: Flag-p70S6K (UniProt P23443); test: co-IP; lysates of HEK293 cells transfected with Flag-p70S6K only, immunoprecipitated by anti-FLAG-Sepharose; endogenous partners detected by Western blot

- binding (Flag-p70S6K [1]): binds
- binding (Flag-p70S6K [2]): binds
Substance: endogenous PP2A C subunit (from UniProt P67775) (enzyme)

Results are given in words; binding and its absence hold for the method and conditions named. In cells and extracts the contact can be indirect. Binding can be weak; no strength is given.
